# In PubChem BioAssay AID1508600 (Functional Genomics Laboratory (NCATS/FGL), 2020):
# Among all 53,000 sequences or so, about 3,700 (7%) were called active.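 Rule for the calls: active = gene knockdowns whose robust z-score for IL-1 alpha signal is at least 2 or at most -2, so actives lie on both sides; inactive = the rest.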 This is one part of the list.
# Test: Components of the Cytosolic LPS Sensing Pathway: Gene Identification via Genome-wide siRNA Screen
# Details: RAW264.7 macrophages, IL-1a HTRF, actives lie on both sides, screened at 100 nM (by protocol), cells primed 5 h with Pam3CSK4 first
# Excerpt: Non-canonical inflammasome activation by cytosolic LPS is a critical component of the host response to Gram-negative bacterial infection, however we lack a comprehensive understanding of the cellular processes that control this pathway. Here we describe a genome-wide siRNA screen to identify genes regulating the mouse macrophage IL-1 alpha response to cytosolic LPS.
# RAW264.7 cells were maintained in complete DMEM media, comprising DMEM with 4.5 g/L glucose, 10% FBS (Gemini Bio-Products, West Sacramento, CA), 2 mM Glutamine (Lonza) and 20 mM HEPES (Lonza), hereafter complete DMEM.
# The RNAi screen was conducted in 384-well format using the Ambion Silencer Mouse Genome siRNA Library (#4391425), which consists of three unique, nonoverlapping, nonpooled siRNAs for each of 17,000 gene targets. siRNA reagents ([…]) were stamped into 384-well white flat-bottom microplates (Corning, 3570) using a Velocity11 VPrep liquid handling system (Agilent) integrated into a BioCel robotic platform (Agilent) in columns 1-22, leaving columns 23-24 empty for negative (Ambion, Negative control #1) and positive (mouse Casp4) controls, respectively. The median value of each plate's negative control column was used to normalize sample wells, and the positive control was used to assess transfection efficiency and assay performance.
# Lipofectamine RNAiMAX Transfection Reagent ([…]; Invitrogen) was added in […] serum-free, antibiotic-free media to plate wells using a Thermo Scientific Matrix WellMate and Microplate Stacker. Plates were incubated for 45 min at room temperature to allow for the sufficient formation of siRNA-lipid complexes. Cells were seeded at a density of 1x10^4 cells per well in 20 microL media containing 20% (vol/vol) FBS without antibiotics. The final concentration of siRNA in each well was 100 nM. Cells were cultured for 48h at 37 degrees C in 5% CO2 before addition of […] of TLR ligand Pam3CSK4 for 5 hours. The medium was then removed, replaced with […] growth media and cell were transfected with […] of LipidA and TransIT-TKO (Mirus) for 24 hour. At the end of the LipidA treatment, […] of supernatant was transferred to a 384 Greiner Bio-one non-binding low volume plate and […] of IL-1a HTRF reagent (Cisbio, 62MIL1APEH) was added and incubated at room temperature overnight. The plates were read on an EnVision plate reader (PerkinElmer). Cell viability was measured by adding 20ul Cell Titer Glo to the original plate and running a luminescence read on the EnVision. The quantified IL-1a signal for each siRNA gene-targeted well was divided by the median of the negative control wells and multiplied by 100 to achieve a negative control normalized value for each well/siRNA. This normalized value was then used to generate a robust z-score by first taking the log of each value and then by subtracting the median and dividing by the […].
row,Sequence,z-score
1,GCUUCAAGCCUGAGAGUAUTT against Cct8l1,inactive: -0.411
2,GGAAAUCUUCAUGAUCAGUTT against Fam24b,active: -2.24
3,CCUACUUCUCAUCGCUGAGTT against 2310022B05Rik,inactive: -0.455
4,GGUAGAUCCAACAAAACACTT against Vps54,inactive: 0.622
5,CCAAAACCUCAUGCUGAAATT against Zfp758,inactive: 0.396
6,GGAUAUUCUCUAGUCUCCATT against Pelo,inactive: -1.33
7,GGUACUGGAGCAAUUGGCATT against Bpifc,inactive: -1.22
8,GGAGAAAAAGUCCAAGUCGTT against Otud7a,inactive: -1.12
9,AUCAAGCAAGGGAACUCUGTT against Noto,inactive: 0.431
10,GGCCUAGAAACCUUGGUGUTT against Cyp2d10,inactive: -0.297
11,GGGAAUGAGUCAGCUCUUUTT against Cd163,inactive: -0.667
12,GCCUGUUGGUACCAAAUGGTT against Unc5b,inactive: -0.957
13,GGCGAUGAGUUUGAACUGCTT against Bcl2l1,inactive: 1.75
14,CGGACUAUUUGAAAUGGCUTT against Ppt2,inactive: -0.464
15,GCAUAAAGCAGUCAUGCUUTT against Gskip,inactive: -0.989
16,GCAAGACAGAACGUAUUAATT against Fem1c,inactive: -1.11
17,GGAACAGUCGUGGUAAAGUTT against Gnl2,inactive: -0.767
18,GCAUUAUAUGGCUUCAUAUTT against Mfsd14b,inactive: 1.37
19,GGACCAAAAGAACAAUACGTT against Sncaip,inactive: -1.36
20,GGUUCUCAUCAUUUCAACUTT against Sh3bgrl,inactive: -1.61
21,GGUCCACGGUUACUAAAAATT against Klrd1,inactive: 1.58
22,GGAACUCCUAGCACUGAAATT against Hdac4,inactive: 1.17

row,Sequence,z-score
1,CCUUUUUAUCGUCUAUAUCTT against Nox1,inactive: 1.92
2,CGUGUUAUCUCGUAUUGUUTT against 5930422O12Rik,inactive: -0.454
3,GGACAUGAUUAAUGAGGUGTT against Calm3,inactive: 0.451
4,GCUGGAUGUGAAAAGAGCGTT against Aktip,inactive: -0.00618
5,GCCUCACGGUUAGUUGGGATT against Cyren,inactive: 0.461
6,GGACUCAACUGCACUGUUGTT against Izumo4,active: -2.37
7,GCUCGAUGCGGAUGAAUAUTT against Lzic,inactive: 0.311
8,GGUAAUGAGAUGUCAUUUCTT against Spock1,inactive: 0.355
9,GGAUGUGAAACAUGCUUUUTT against Olfr1030,inactive: 0.536
10,GGAGGAUUAGUAAAUUCAATT against Ier2,inactive: 1.75
11,GCCAAUAAAGUCGGUGAAATT against H2aj,inactive: -0.244
12,GGAGAUGUUACACAAAAUCTT against Septin4,inactive: -1.43
13,GGUACAACUCUAAGAGAAGTT against Rpl39,inactive: 0.528
14,GGAGAGUGACAACAGCUUCTT against 1700037H04Rik,inactive: -1.05
15,GGGAGGUAAGAAUCUUUAUTT against Mphosph8,inactive: 1.1
16,GGGAAAUUCAGUCUCAUUCTT against P2rx2,inactive: -0.709
17,GGUGGAGUGUUAUUAUAGGTT against Smim8,inactive: 0.209
18,GGACUUUGAGAAGGUCGAUTT against Khk,inactive: 0.239
19,GGAGGAGCAGAUAGACUCATT against Ncln,inactive: 0.0769
20,GGAGUAACAACACAACAUUTT against Mab21l1,inactive: 1.43
21,CCAUACAAGGGUGACAAUUTT against Olfr822,inactive: 0.253
22,GGAAGAUGGCACUGAGAUCTT against Itgae,inactive: 1.05

# Quoted at random: 4 records from the list.
row,Sequence,z-score
11,GCCAAUAAAGUCGGUGAAATT against H2aj,inactive: -0.244
21,CCAUACAAGGGUGACAAUUTT against Olfr822,inactive: 0.253
9,GGAUGUGAAACAUGCUUUUTT against Olfr1030,inactive: 0.536
1,CCUUUUUAUCGUCUAUAUCTT against Nox1,inactive: 1.92

# Further entries

row,Sequence,z-score
1,GGCCACUUUGGCUGAAAUUTT against Tbr1,inactive: 0.422
2,GCUGGAUACAUUGUGUUCUTT against Rnf44,inactive: 0.58
3,GCACCCUCCACCAUUGUGATT against Sqstm1,inactive: -1.09
4,GGGCAACCUUCGUGUCAAGTT against P4htm,inactive: 0.037
5,GGAACAAGGCUUUUUCCACTT against Olfr481,inactive: 0.566
6,GCUUGUUUCUAUGAUUAAGTT against Phf10,inactive: 0.0674
7,GCCCUUAGAGAGAAUUUAUTT against Lmo2,inactive: 0.63
8,CGAUUGUCAGGAUCCAUUUTT against Vipr1,inactive: -0.787
9,CCAAAGAUGCUAGUUGACCTT against Olfr1135,inactive: -0.186
10,GGCAAUUCUGAAGAAACCATT against Ogn,active: -2.23
11,GGAUGUGGCGCAAUAUAUUTT against Gpt,inactive: 1.01
12,GGGCACACUGUAAAGUUGGTT against Mid1ip1,inactive: -0.0466
13,GGUUGAGCUGAAGAAUGGATT against Htra1,inactive: 0.332
14,GGAGACUGGAGCUUCAUCUTT against Lpar2,inactive: 0.318
15,GGCUGUCAUACUUUCAGGGTT against Hyal5,active: 2.51
16,GGAAAUUCAGAUGCUGAAGTT against Erc1,inactive: -1.08
17,GGACAAAAGGCAGCUUAUUTT against Cnot3,inactive: -1.45
18,GGGUUUAAAAUCUGUAGAUTT against Edrf1,inactive: 0.162
19,GGACAGAGUCUUCAAAACGTT against Fastkd3,inactive: -1.52
20,GCCAAGCACUGGACUAUGATT against Cdk5r2,inactive: 0.345
21,GCAACAAAAGGCCUAAUCATT against 4930550C14Rik,inactive: -1.74
22,GGAUAAGGUAAUCUCGGUATT against Olfr710,inactive: -0.472

row,Sequence,z-score
1,GGUCCUUAAUCAUCUGCAUTT against Galr1,inactive: -0.477
2,GGAUUAUCAAUGAAUAGCATT against Gabrb2,inactive: 0.913
3,GGUUGAAAAUGGAAGAGUATT against Mbnl2,active: -2.27
4,GGAAUAGGAUCUAAUCUAATT against Tasp1,inactive: -0.068
5,GGACAUGUGCAUGAAGGUUTT against Cryl1,inactive: 0.541
6,GGGCGAGGCCAAUUUCUUCTT against Ints11,inactive: 0.362
7,GGAAGUUGAAAAUGAAAACTT against Myom2,inactive: 0.841
8,GCGAUUGAAGUCUCAGGGATT against Nrde2,inactive: -1.03
9,GGCAAGAAUGGGAUAAUACTT against Spice1,inactive: -1.92
10,GGCUGUGAUAUUGUUAUUCTT against Dmxl2,inactive: 0.13
11,CGGUUCCUCUAACAUGAUATT against Ppp1r2,inactive: 0.0902
12,GCUCUGAUAUUCUCAUCAATT against Olfr39,inactive: 1.25
13,GGUAGGAAGCUAGAGAAAUTT against Synj2,inactive: 0.139
14,CGGUCUUGUGGUCUUUUACTT against Rab7,inactive: -0.222
15,GCUCUUGUUAUUUACGUCGTT against Lgi1,inactive: 0.478
16,CCAAAUCCGGGAAAAAGAGTT against Armcx5,inactive: -0.459
17,GGACCUAUUACCUCAAUGATT against Spatc1l,active: -2.59
18,GCAAUGGACCAUUUUCUUUTT against Olfr812,inactive: -0.239
19,GGCUGAGAACAAUAUGUAUTT against Ccdc80,inactive: 0.323
20,GGCACUGAAUGACUUUGUGTT against Pik3cd,inactive: -0.844
21,GCUGGACCGAAUUGAUUCATT against Egfl7,inactive: 1.55
22,CGUCAACCUUUGGUACAAATT against Cabin1,inactive: -0.294

row,Sequence,z-score
1,GUCUUUUUAUGGAUGUAUGTT against Vmn1r38,inactive: 0.208
2,UGAAGUGGUGAAUCAGAGUTT against Olfr1167,inactive: -1.21
3,GGAGAAAGAGCAGAGUCUGTT against Cep250,active: -2.04
4,GCAUAAAGCAAGGUUGAGUTT against Pvr,inactive: -0.949
5,GGGAACGAGAACCGAUUUGTT against Tfpi,inactive: 0.895
6,GGACUGCCUUAAUUAAAGUTT against Coa6,inactive: 1.7
7,GGGUCUGCUACAUCUUCGGTT against Ino80e,active: 2.27
8,GGCAGUCUUAUAAUUCAUCTT against Zfp944,inactive: -1.08
9,CCUGCACACCAAGUAUCUGTT against Ccl6,inactive: -0.252
10,GGUGAAGGCCAUCAAUUUCTT against Gabbr1,inactive: -0.351
11,CGCUUACAAGCUAACCUCATT against Mrgprd,inactive: -0.517
12,GGAGCUGUUCUCAUCCGUUTT against Fam199x,inactive: 0.277
13,GGACCUCGAGGACUUGUUCTT against Srsf9,inactive: 0.972
14,GGAGAAGAGUUUCCUCUGATT against Rtn4ip1,inactive: -1.25
15,GAAUGAAAGGUACGAAAAATT against Ang4,inactive: 0.453
16,GAAUGUUUACAUGCCACACTT against Ttbk1,inactive: 0.22
17,GCGGAAACUCUCGAAAGUGTT against Dhx34,inactive: -1.52
18,GGAUCCGAACAUCCUCAGGTT against Hr,active: -2.22
19,GGUGCACUCUGUCAGUUCATT against Col27a1,inactive: -0.352
